Measurements reported in PubChem BioAssay AID493246 (Drosophila RNAi Screening Center, 2011).

Screen: 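Genes fly cells need to grow and stay alive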 (primary screen)
Cell system: Drosophila Kc and S2R+ cells
Reagents: long dsRNA against Drosophila genes
Read-out: 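Cell number per well after knock-down, printed as raw plate values; calls were based on per-plate z-scores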
Reading the numbers: Kc cell number and S2R+ cell number: higher = more cells remaining
Rule for the call: 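Counted as a hit if cell number falls by a z-score of at least 3 within its plate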
The screen tested about 21,000 reagents; below is an unselected part of those that have a named target and a result. Over the whole deposit, 429 (2%) got an active call. 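Values are raw and not normalised between plates; calls rest on per-plate z-scores that were not deposited.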 The numbers tell different reagents against one gene apart. Names joined by + are all predicted targets of the reagent. Reagent sequences are not shown. Not stated in the record: the amount of reagent, the time to read-out.

no.	gene	reagent	Kc cell number, rep 1	Kc cell number, rep 2	S2R+ cell number, rep 1	S2R+ cell number, rep 2	activity call
1	Oxp	1	1.61e6	1.65e6	1.27e6	1.39e6	inactive
2	CG4480	1	1.47e6	1.59e6	1.28e6	1.42e6	inactive
3	PolE1	1	1.80e6	1.74e6	1.33e6	1.36e6	inactive
4	CG13836 (retired record)	1	1.46e6	1.48e6	1.01e6	1.08e6	inactive
5	Xrcc2	1	1.62e6	1.59e6	1.13e6	1.30e6	inactive
6	CG4440	1	1.68e6	1.78e6	1.23e6	1.52e6	inactive
7	gol	1	1.31e6	1.41e6	1.09e6	1.13e6	inactive
8	CG14456	1	1.59e6	1.63e6	1.19e6	1.31e6	inactive
9	Nup50	1	1.29e6	1.39e6	1.09e6	1.11e6	inactive
10	Prestin	1	1.13e6	1.21e6	1.08e6	1.19e6	inactive
11	CG8072	1	1.40e6	1.53e6	1.30e6	1.28e6	inactive
12	CCT7	1	1.42e6	1.53e6	1.25e6	1.30e6	inactive
13	CG9164	1	1.56e6	1.67e6	1.04e6	1.14e6	inactive
14	CG9164	2	6.11e5		8.38e5		inactive
15	CG6912	1	1.31e6	1.47e6	1.21e6	1.39e6	inactive
16	Atg17	1	1.58e6	1.88e6	1.26e6	1.36e6	inactive
17	CG15803	1	1.42e6	1.37e6	1.12e6	1.36e6	inactive
18	mEFTu2	1	1.19e6	1.41e6	1.05e6	1.10e6	inactive
19	ItgaPS4	1	1.48e6	1.61e6	1.31e6	1.45e6	inactive
20	SLC22A	1	1.46e6	1.71e6	1.22e6	1.34e6	inactive
21	SLC22A	2	1.37e6	1.54e6	1.29e6	1.37e6	inactive
22	ArfGAP3	1	1.59e6	1.58e6	1.19e6	1.21e6	inactive
23	CG6424	1	1.35e6	1.37e6	1.12e6	1.18e6	inactive
24	Cpr12A	1	1.64e6	1.51e6	1.12e6	1.26e6	inactive
25	CG2698	1	1.66e6	2.04e6	1.31e6	1.38e6	inactive
26	Eno	1	1.55e6	1.49e6	1.06e6	1.26e6	inactive
27	CG3457	1	5.53e5		8.08e5		inactive
28	KP78a + KP78b	1	1.49e6	1.47e6	1.23e6	1.29e6	inactive
29	KP78a + KP78b	2	1.47e6	1.47e6	1.19e6	1.27e6	inactive
30	CG6770	1	1.48e6	1.48e6	8.51e5	9.71e5	inactive
31	CG3287 (retired record)	1	1.58e6	1.67e6	1.25e6	1.36e6	inactive
32	CG13070	1	1.24e6	1.41e6	1.33e6	1.45e6	inactive
33	rad50	1	1.23e6	1.29e6	1.07e6	1.14e6	inactive
34	hec	1	1.67e6	1.58e6	1.05e6	1.14e6	inactive
35	pie	1	1.36e6	1.39e6	1.17e6	1.24e6	inactive
36	RunxB	1	1.23e6	1.38e6	1.06e6	1.18e6	inactive
37	RunxB	2	1.51e6	1.54e6	1.02e6	1.16e6	inactive
38	RunxB	3	3.51e5	4.05e5	4.28e5	5.20e5	active
39	Iml1	1	1.36e6	1.39e6	1.09e6	1.13e6	inactive
40	AP-1gamma	1	1.58e6	1.58e6	9.04e5	1.03e6	inactive

As entered above:
Value of gol under “S2R+ cell number, rep 1”: 1.09e6
Value of Prestin under “Kc cell number, rep 2”: 1.21e6
PolE1, Kc cell number, rep 2: 1.74e6
For “Kc cell number, rep 2”, CG8072 is entered as 1.53e6
